{"source": "PubChem BioAssay AID1053208 (Peter MacCallum Cancer Centre, 2014)", "test": "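Synthetic lethal interactions between gene loss and doxorubicin in osteosarcoma cells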 (primary screen)", "system": "mouse osteosarcoma cells, early-passage culture from an engineered mouse model of fibroblastic bone tumour", "reagents": "siRNA pool against mouse genes, 40 nM", "timing": "about 120 h (48 h before drug, then 72 h with drug)", "challenge": "doxorubicin 100 nM for 72 h, roughly 30-40% inhibitory dose", "measurement": "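Luminescent ATP signal taken as viability with or without 100 nM doxorubicin for 72 h; mean of two wells set against non-targeting siRNA and turned into robust z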", "scale": "viability z-score with doxorubicin: higher = more viable cells under doxorubicin; viability z-score without drug: higher = more viable cells with knock-down alone", "hit rule": "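a pool counts as active when its viability z-score with doxorubicin is -2 or below and its z-score without drug lies between -2 and 2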", "note": "Shown is an unselected part of about 17,000 deposited reagents. Of all reagents, 788 (4.7%) were called active. 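Calls rest on z-score classes alone; an extra cut-off of viability at most 70% of control was not applied to them.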 Further read-outs or replicates are left out here. Reagent sequences are not shown."}
{"gene": "Cby2", "PubChem SID": "SID152317967", "combined z-score class": "no change with or without drug", "viability z-score with doxorubicin": -0.45, "viability z-score without drug": -1.52, "Call": "inactive"}
{"gene": "Ubqln2", "PubChem SID": "SID152315015", "combined z-score class": "no change with or without drug", "viability z-score with doxorubicin": 1.46, "viability z-score without drug": -0.17, "Call": "inactive"}
{"gene": "Tap2", "PubChem SID": "SID152340434", "combined z-score class": "no change with or without drug", "viability z-score with doxorubicin": -0.22, "viability z-score without drug": 0.17, "Call": "inactive"}
{"gene": "Cxcr4", "PubChem SID": "SID152311628", "combined z-score class": "no change with or without drug", "viability z-score with doxorubicin": 0.45, "viability z-score without drug": 0.17, "Call": "inactive"}
{"gene": "Slc5a4a", "PubChem SID": "SID152268999", "combined z-score class": "low cell count with doxorubicin only", "viability z-score with doxorubicin": -2.7, "viability z-score without drug": 0.17, "Call": "active"}
{"gene": "Cyld", "PubChem SID": "SID152332366", "combined z-score class": "no change with or without drug", "viability z-score with doxorubicin": -0.9, "viability z-score without drug": -0.51, "Call": "inactive"}
{"gene": "Defa31", "PubChem SID": "SID152338526", "combined z-score class": "high cell count without drug only", "viability z-score with doxorubicin": 1.8, "viability z-score without drug": 2.19, "Call": "inactive"}
{"gene": "Ctdnep1", "PubChem SID": "SID152266291", "combined z-score class": "no change with or without drug", "viability z-score with doxorubicin": -0.9, "viability z-score without drug": 0.67, "Call": "inactive"}
{"gene": "Akr1b8", "PubChem SID": "SID152342577", "combined z-score class": "no change with or without drug", "viability z-score with doxorubicin": -1.57, "viability z-score without drug": -0.17, "Call": "inactive"}
{"gene": "Cox6a2", "PubChem SID": "SID152262117", "combined z-score class": "no change with or without drug", "viability z-score with doxorubicin": -0.22, "viability z-score without drug": 0.51, "Call": "inactive"}
{"gene": "Zmym1", "PubChem SID": "SID152293412", "combined z-score class": "no change with or without drug", "viability z-score with doxorubicin": -0.56, "viability z-score without drug": -0.84, "Call": "inactive"}
{"gene": "Thbs1", "PubChem SID": "SID152286155", "combined z-score class": "no change with or without drug", "viability z-score with doxorubicin": 0, "viability z-score without drug": 0.17, "Call": "inactive"}
{"gene": "Spata19", "PubChem SID": "SID152302989", "combined z-score class": "no change with or without drug", "viability z-score with doxorubicin": 1.12, "viability z-score without drug": 1.01, "Call": "inactive"}
{"gene": "Spta1", "PubChem SID": "SID152327096", "combined z-score class": "no change with or without drug", "viability z-score with doxorubicin": -0.22, "viability z-score without drug": -0.84, "Call": "inactive"}
{"gene": "Rassf5", "PubChem SID": "SID152304961", "combined z-score class": "no change with or without drug", "viability z-score with doxorubicin": 0.56, "viability z-score without drug": 1.01, "Call": "inactive"}
{"gene": "Fam221a", "PubChem SID": "SID152297918", "combined z-score class": "no change with or without drug", "viability z-score with doxorubicin": -0.45, "viability z-score without drug": 0.51, "Call": "inactive"}
{"gene": "Wipi2", "PubChem SID": "SID152311456", "combined z-score class": "no change with or without drug", "viability z-score with doxorubicin": 1.57, "viability z-score without drug": 0, "Call": "inactive"}
{"gene": "Tshz3", "PubChem SID": "SID152339529", "combined z-score class": "no change with or without drug", "viability z-score with doxorubicin": 0, "viability z-score without drug": 0.51, "Call": "inactive"}
{"gene": "Or5m3b", "PubChem SID": "SID152303359", "combined z-score class": "no change with or without drug", "viability z-score with doxorubicin": 1.01, "viability z-score without drug": -1.52, "Call": "inactive"}
{"gene": "H3f3a", "PubChem SID": "SID152315957", "combined z-score class": "no change with or without drug", "viability z-score with doxorubicin": 0.9, "viability z-score without drug": 0.84, "Call": "inactive"}
{"gene": "Ccdc33", "PubChem SID": "SID152270652", "combined z-score class": "high cell count without drug only", "viability z-score with doxorubicin": 0.56, "viability z-score without drug": 2.36, "Call": "inactive"}
{"gene": "Tmem63b", "PubChem SID": "SID152289141", "combined z-score class": "no change with or without drug", "viability z-score with doxorubicin": 0.22, "viability z-score without drug": 0.84, "Call": "inactive"}
{"gene": "Tgfb3", "PubChem SID": "SID152323001", "combined z-score class": "no change with or without drug", "viability z-score with doxorubicin": -0.45, "viability z-score without drug": -0.34, "Call": "inactive"}
{"gene": "Zic2", "PubChem SID": "SID152280990", "combined z-score class": "no change with or without drug", "viability z-score with doxorubicin": 0.45, "viability z-score without drug": 0.17, "Call": "inactive"}
{"gene": "Krt82", "PubChem SID": "SID152279156", "combined z-score class": "no change with or without drug", "viability z-score with doxorubicin": -1.8, "viability z-score without drug": -0.51, "Call": "inactive"}
{"gene": "Pold4", "PubChem SID": "SID152279569", "combined z-score class": "no change with or without drug", "viability z-score with doxorubicin": -1.69, "viability z-score without drug": -0.84, "Call": "inactive"}
{"gene": "Ikbke", "PubChem SID": "SID152284264", "combined z-score class": "high cell count with doxorubicin only", "viability z-score with doxorubicin": 2.59, "viability z-score without drug": 1.01, "Call": "inactive"}
{"gene": "Cx3cl1", "PubChem SID": "SID152304539", "combined z-score class": "no change with or without drug", "viability z-score with doxorubicin": -0.79, "viability z-score without drug": -1.85, "Call": "inactive"}
{"gene": "Gspt1", "PubChem SID": "SID152314172", "combined z-score class": "low cell count with and without drug", "viability z-score with doxorubicin": -3.82, "viability z-score without drug": -5.23, "Call": "inactive"}
{"gene": "Entpd7", "PubChem SID": "SID152322240", "combined z-score class": "no change with or without drug", "viability z-score with doxorubicin": 0.67, "viability z-score without drug": 0.51, "Call": "inactive"}
{"gene": "Dll3", "PubChem SID": "SID152331889", "combined z-score class": "no change with or without drug", "viability z-score with doxorubicin": 1.46, "viability z-score without drug": -0.17, "Call": "inactive"}
{"gene": "4930599N23Rik", "PubChem SID": "SID152281417", "combined z-score class": "no change with or without drug", "viability z-score with doxorubicin": -0.9, "viability z-score without drug": -1.18, "Call": "inactive"}
{"gene": "Elf5", "PubChem SID": "SID152299818", "combined z-score class": "high cell count without drug only", "viability z-score with doxorubicin": 0.67, "viability z-score without drug": 2.53, "Call": "inactive"}
{"gene": "Or8b3b", "PubChem SID": "SID152309496", "combined z-score class": "no change with or without drug", "viability z-score with doxorubicin": 0.11, "viability z-score without drug": 0.34, "Call": "inactive"}
{"gene": "Dnai1", "PubChem SID": "SID152278370", "combined z-score class": "no change with or without drug", "viability z-score with doxorubicin": 0.22, "viability z-score without drug": -0.84, "Call": "inactive"}
{"gene": "Cacng5", "PubChem SID": "SID152277627", "combined z-score class": "no change with or without drug", "viability z-score with doxorubicin": 1.35, "viability z-score without drug": 1.85, "Call": "inactive"}
